Assay results published in patent US10604476B2, “Fluorinated amide derivatives and their uses as therapeutic agents” (Trillium Therapeutics Inc., priority 2015, dated 2020).

How the values were obtained:
6 Hz psychomotor seizure = assay: Mouse 6 Hz model; format: in vivo; conditions: Table 8 (rotorod vs 6 Hz)
Experimental: Male, Sprague-Dawley rats and CD-1 mice were used for all studies. All animals were allowed ad-lib access to food and water except during experiment. Animals were housed within an animal vivarium maintained under a 12 h light:dark cycle (lights on: 07:00 h), and all experiments were conducted in the animals light phase. For all experiments, animals were habituated to the vivarium for a minimum of 72 h before experimentation. The experimental procedures used in the present investigation were conducted under the Association for Assessment and Accreditation of Laboratory Animal Care (AAALAC) and the Canadian Council on Animal Care (CCAC) guidelines. All compounds were sonicated in 5% Tween 80® in saline or methylcellulose 0.5% (wgt/vol), using MC and sterile water and injected in a dose volume of 5 ml/kg or 10 ml/kg (rat), and 10 ml/kg (mouse). Drugs were administered by either the oral, intraperitoneal or intravenous route. […] Preliminary experiments established that these stimulus parameters elicited a psychomotor seizure, defined as the expression of at least one of the following behaviors: stun/immobility, forelimb clonus, straub tail, vibrissae tremor, lateral head movement in >95% of control animals. Protection was defined as complete absence of all the above behaviors within 20 s of stimulus delivery. The effective dose of compound necessary to protect against psychomotor seizures to 50% of controls (i.e. ED50) was determined by curve fitting program (Prism v.4.02).

[1] = tested on: maximal electroshock seizure; assay: Maximal Electroshock Seizure (MES) rat model; format: in vivo; conditions: po, Table 7 (rotorod vs MES)
Experimental: Male, Sprague-Dawley rats and CD-1 mice were used for all studies. All animals were allowed ad-lib access to food and water except during experiment. Animals were housed within an animal vivarium maintained under a 12 h light:dark cycle (lights on: 07:00 h), and all experiments were conducted in the animals light phase. For all experiments, animals were habituated to the vivarium for a minimum of 72 h before experimentation. The experimental procedures used in the present investigation were conducted under the Association for Assessment and Accreditation of Laboratory Animal Care (AAALAC) and the Canadian Council on Animal Care (CCAC) guidelines. All compounds were sonicated in 5% Tween 80® in saline or methylcellulose 0.5% (wgt/vol), using MC and sterile water and injected in a dose volume of 5 ml/kg or 10 ml/kg (rat), and 10 ml/kg (mouse). Drugs were administered by either the oral, intraperitoneal or intravenous route. Male Sprague-Dawley rats of body weight 80-100 g were used for these studies. Each experiment was conducted over 3 consecutive days. On day 1 and 2, each rat received a single electrical stimulus (150 mA, 0.2 s duration, 60 Hz) via corneal electrodes moistened with saline (Shock stimulator type 221: Harvard apparatus). […] Typically this reflected approximately 70-90% of the initial group. […] On the test day following a defined drug pretreatment period, rats received a maximal electroshock (150 mA, 0.2 s duration, 60 Hz) via corneal electrodes. Protection was defined as absence of a full tonic seizure within 10 s of stimulus delivery. Twenty minutes before the MES procedure, the animals were tested on a fixed speed rotorod (best score from 3 trials at 8 r.p.m, trial duration=60 s) to give an early assessment of drug effect on gross motor function.

Compound	PI (6 Hz psychomotor seizure)	PI [1]
NC(=O)COc1cc(C(F)(F)F)cc(C(F)(F)F)c1 [I(F), 2-[3,5 bis(trifluoromethyl)-phenoxy]acetamide;]	>3.3	>27
C[C@@H](Oc1cc(Cl)cc(C(F)(F)F)c1)C(N)=O [I(D), (2R)-2-[3-chloro-5-(trifluoromethyl)-phenoxy]propanamide]	>3.5	>22
CN(CC(N)=O)c1cc(C(F)(F)F)cc(C(F)(F)F)c1 [I(A), 2-[(3,5-Bis-trifluoromethyl-phenyl)-methyl-amino]-acetamide]	>2.5	>10
